Test [1] deals with glutathione S transferase (GST) alone. Put plainly: pull-down; E. coli extracts with GST- and His6-tagged proteins mixed in a 1:2 ratio with glutathione Sepharose 4B beads, room temperature 1 h, BB binding buffer, 5 washes; His6-tagged protein detected by anti-His6-peroxidase blot; in duplicate.
Test [2] concerns the target LHP1 chromo shadow domain (CSD) fused to the GAL4 DNA binding domain (Arabidopsis thaliana). Kind of test: two-hybrid; GAL4 system in yeast PJ69-4A; LHP1 or truncated LHP1 fused to the GAL4 DNA binding domain as bait, λACT Arabidopsis cDNA library clone / pAD-LIF2 as prey; selection on medium lacking histidine, leucine and tryptophan with 2 mM 3-amino-1,2,4-triazole, β-galactosidase assay; confirmed by independent cotransformations.

Results are given in words; binding and its absence hold for the method and conditions named. For some assays here: Binding can be weak; no strength is given. For some assays here: Binding seen in cells or lysates may run through a third protein. For some assays here: Where a sequence is shown, tags or fusion partners need not be part of it.

B1: LHP1 protein fused to a His6 tag (protein, UniProt Q946J8 1-445)
chain: MKGASGAVKKKPQVLNEAGEAETAVETVGESRKISGDGGFGSDDGGGGGGGGSGESILREIGDDRPTEDGDEEEEEDEDEDDGGDEEDEEGEGEGGQEERPKLDEGFYEIEAIRRKRVRKGKVQYLIKWRGWPETANTWEPLENLQSIADVIDAFEGSLKPGKPGRKRKRKYAGPHSQMKKKQRLTSTSHDATEKSDSSTSLNNSSLPDIPDPLDLSGSSLLNRDVEAKNAYVSNQVEANSGSVGMARQVRLIDNEKEYDPTLNELRGPVNNSNGAGCSQGGGIGSEGDNVRPNGLLKVYPKELDKNSRFIGAKRRKSGSVKRFKQDGSTSNNHTAPTDQNLTPDLTTLDSFGRIARMGNEYPGVMENCNLSQKTKIEELDITKILKPMSFTASVSDNVQEVLVTFLALRSDGKEALVDNRFLKAHNPHLLIEFYEQHLKYNRTP
In the case of B1, the binding result in test [1] is listed as “no binding”.

B2: LHP1-Interacting Factor2 (LIF2), partial cDNA clone aa 204-495 isolated in the two-hybrid screen (domain or fragment, UniProt Q9ASP6 204-495)
chain: PKNWTEDEFRKVIEDVGPGVENIELIKDPTNTTRNRGFAFVLYYNNACADYSRQKMIDSNFKLEGNAPTVTWADPKSSPEHSAAAAQVKALYVKNIPENTSTEQLKELFQRHGEVTKIVTPPGKGGKRDFGFVHYAERSSALKAVKDTERYEVNGQPLEVVLAKPQAERKHDPSSYSYGAAPTPAPFVHPTFGGFAAAPYGAMGAGLGIAGSFSQPMIYGRGAMPTGMQMVPMLLPDGRVGYVLQQPGMPMAAAPPQRPRRNDRNNGSSGGSGRDNSHEHDGNRGGRRYRPY
Take B2: the binding entry in test [2] is “binds”.

Source of the values: paper PMC3031606.
